Drawing on patent publication US20220220174A1, this text covers binding for one molecule.

Protein sequences, listed by entry. Tags and fused reporters are not part of them. Lines headed by an entry give the natural chain unless they say otherwise; changes in a name come on top.
UniProt O55003: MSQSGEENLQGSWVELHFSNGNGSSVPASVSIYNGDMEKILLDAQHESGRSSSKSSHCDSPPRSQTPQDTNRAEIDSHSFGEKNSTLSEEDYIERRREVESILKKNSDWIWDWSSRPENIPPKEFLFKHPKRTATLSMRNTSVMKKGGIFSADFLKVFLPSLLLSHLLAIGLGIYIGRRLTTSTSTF

No constants are given. Whether binding was seen depends on the method and setting. Some results given as binding are weak or reduced against the parent protein; the word gives no strength.

The experiment deals with recombinant BNIP3 (BCL-2 adenovirus E1B 19 kDa interacting protein-3) (mouse) (UniProt O55003). The experiment in a line: peptide microarray, immobilised peptide, recombinant BNIP3.

Turning to WVELHFFN [peptide containing BNIP3 amino acids 13-20 with a Ser-to-Phe substitution at position 19 (WVELHFFN)], the binding entry is recorded as “binds”.
